The source of these data is PubChem BioAssay AID1471 (National Center for Advancing Translational Sciences (NCATS), 2008).

Among all 230,000 compounds or so, about 310 (0.13%) were called active. Roughly 2% stayed inconclusive and do not appear here. Calls come from the whole dose curve; as a rule, active = well fitted activation curve with a large enough effect; inconclusive = small, poorly fitted or top-dose-only effect; inactive = no such curve, though single readings can be large or run the other way. Only a part is listed here, and it is no random draw. Entries without a call were filed so in the source. Some structures have more than one record in an assay (separate samples or runs), and their calls can disagree.
Potency is the fitted concentration of half-maximal effect.

The test in a line: qHTS Multiplex Assay to Identify Dual Action Probes in a Cell Model of Huntington: Cytoprotection (ATP).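 For cytoprotection (ATP increase): toxic huntingtin expression switched on by the ecdysone agonist tebufenozide; % of control where 0% means no effect.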 Note: nearly all actives have a fitted effect of over 45% in size. The note with it: PC12 HTT-Q103 induced, ATP luminescence, 40 h; cytoprotection (ATP increase): at 56.4 µM (top of the series) unless noted. An outline of the steps: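 PC12 cells stably carrying ecdysone-inducible Htt exon 1 (Q103)–GFP were induced with 100 nM tebufenozide (final) alongside library compounds in a dose series. Cytoprotection was scored as retained ATP by ATPlite luminescence.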
For the compound `O=c1cc(-c2ccccc2O)oc2c1ccc1ccccc12`, the Potency is active: 447 nM. With `COC(=O)[C@@H](NC(=O)O[C@@H]1C(=O)c2cc(OC)ccc2O[C@H]1c1cccc(OC)c1)C(C)C`, the cytoprotection (ATP increase) was -45.7%. Take `COc1ccc(-c2c(C)cc3oc(=O)cc(-c4ccccc4)c3c2C)cc1OC`: the cytoprotection (ATP increase) is -116%. Take `CC1(C)C(O)C=C[C@@]2(C)C1CC(=O)O[C@@]1(C)C3=CC(=O)OC(c4ccoc4)[C@]3(C)CCC21` (stereo partly drawn): the cytoprotection (ATP increase) worked out at 35.1%.

Turning to `O=[N+]([O-])c1cccc(CSc2ncnc3ccccc23)c1`, the Potency was active: 2240 nM.

In the case of `CCc1cc(C(=O)c2ccc(OC)cc2)c(N)s1`, the cytoprotection (ATP increase) is 253% [at 10 µM]. In the case of `CCOC(=O)c1nnc(-c2ccc(C)cc2)nc1Oc1ccccc1Cl`, the cytoprotection (ATP increase) amounted to 376% [at 10 µM]. Regarding `CC(=O)c1ccc(-c2ccc(-c3cc(=O)oc4c(C(C)C)ccc(C)c34)cc2)cc1`, the cytoprotection (ATP increase) came out at 54.8%. Consider `CCCCC[C@H](O)/C=C/[C@H]1[C@H](O)CC(O)[C@@H]1C/C=C\CCCC(=O)O` (stereo partly drawn), for which the cytoprotection (ATP increase) was -4.55%. Turning to `Fc1ccc(/C=N/N2CCOCC2)c(F)c1`, the Potency is active: 708 nM. Consider `CN(Cc1ccccc1)C(=O)[C@H](Cc1ccc2ccccc2c1)NC(=O)[C@@H]1CCCN1C(=O)Nc1ccccc1[N+](=O)[O-]`, for which the cytoprotection (ATP increase) was -77.7%.

`COc1ccc(C2/C=C\CN(CC(C)C)CC(=O)N2Cc2cccc(F)c2)cc1` (stereo not drawn): the cytoprotection (ATP increase) was -69.5%. For the compound `COc1cc(-c2cccc([C@H]3[C@@H]4C=CC[C@@H](C)[C@@H]4C(=O)N3Cc3ccccc3)c2)cc(OC)c1OC`, the cytoprotection (ATP increase) is -126%. For the compound `CSCCC(=O)N1CCCC(CNC(=O)c2ccccc2Cl)C1` (stereo not drawn), the Potency was active: 2820 nM. For the compound `CC1(OC(=O)c2ccco2)C(=O)C=C2C=C(C3CC3)OC=C2C1=O` (stereo not drawn), the cytoprotection (ATP increase) was determined as 33.7%. For the compound `CCN(CC)CC1CCN(c2ncc3ncnc(Nc4ccc(F)c(Cl)c4)c3n2)CC1`, the cytoprotection (ATP increase) is -324%. Regarding `CN(C)CC/C=C1\c2ccccc2Sc2ccc(Cl)cc21`, the cytoprotection (ATP increase) was -33.4%. Consider `O=C(/C=C/c1ccc(O)c(O)c1)OCCc1ccccc1`, for which the cytoprotection (ATP increase) was 67.7%. Regarding `CCCCCCOc1ccc(C(=O)n2cnc(N)n2)cc1`, the Potency was active: 12600 nM. Regarding `COc1ccc2[nH]c(-c3ccc(F)cc3F)cc(=O)c2c1`, the cytoprotection (ATP increase) was -165%. In the case of `CCCCc1nnc(NC(=O)CSc2nc(N)cc(=O)[nH]2)s1`, the Potency was active: 3160 nM. With `CC(C)NC[C@@H](O)COc1cccc2ccccc12`, the cytoprotection (ATP increase) was -78.2%. With `Cc1ccc(C(=O)NNC(=O)CCCN2C(=O)/C(=C/c3ccccc3Cl)SC2=S)cc1`, the cytoprotection (ATP increase) turned out to be 279% [at 10 µM].

Turning to `O=C(CNC(=O)c1cccc(F)c1)OCC(=O)N1CCCCC1`, the cytoprotection (ATP increase) amounted to 298% [at 10 µM]. `Cc1cccc(NC(=O)CSc2nnc(-c3ccccc3C)o2)c1`: the cytoprotection (ATP increase) is 295% [at 1.9 µM]. For the compound `CC(C)(Oc1ccc(Cl)cc1)C(=O)NC1CCSC1=O` (stereo not drawn), the cytoprotection (ATP increase) is 235% [at 10 µM]. `Nc1ccc(C(=O)NCC(=O)O)cc1`: the Potency is active: 3160 nM.

With `COC(=O)c1[nH]c2ccc(C)cc2c1NC(=O)CN1CCN(c2ccc(F)cc2)CC1`, the Potency was active: 1580 nM. For the compound `CCCCCCCC(=O)OCCOC(=O)CCCCCCC`, the cytoprotection (ATP increase) was -13.2%.

Regarding `CC(C)c1c(O)ccc2c1CCC1C(C)(C)CCC[C@@]21C` (stereo partly drawn), the cytoprotection (ATP increase) was -331%. `COc1cccc(NC(=O)Cn2c(=O)n(CCC(=O)NCc3ccco3)c(=O)c3ccccc32)c1`: the Potency is active: 3160 nM. As to `C=C1c2cccc(O)c2C(O)=C2C(=O)[C@]3(O)C(O)=C(C(N)=O)C(=O)C(N(C)C)C3C(O)C12` (stereo partly drawn), the cytoprotection (ATP increase) is -42.6%. Still for that read-out and setting: the result for `CC(=O)OCOC(=O)CN(CC(=O)OCOC(C)=O)c1ccccc1OCCOc1ccccc1N(CC(=O)OCOC(C)=O)CC(=O)OCOC(C)=O` reads -23.8%; that for `NC(N)=N/N=C\c1c(Cl)cccc1Cl`, -45.3%; that for `COc1ccc(-c2nc3c(c4nnc(SC(C)C(=O)Nc5ccccc5)n24)COC(C)(C)C3)cc1` (stereo not drawn), 310% [at 10 µM].

As for `CCN(Cc1ccncc1)C(=O)C(CO)c1ccccc1` (stereo not drawn), the cytoprotection (ATP increase) was -78.5%. As to `O=C1OCCN1C(=O)[C@H]1[C@H](c2ccc(Cl)cc2)C(c2cccc(Cl)c2)=NN1c1ccccc1`, the cytoprotection (ATP increase) is -184%.

`CC1=C(Cl)C2=NS(=O)(=O)CCN2C=C1Cl`: the cytoprotection (ATP increase) came to 212% [at 10 µM]. As for `O=Nc1c(-c2c(O)[nH]c3ccccc23)[nH]c2ccccc12`, the cytoprotection (ATP increase) turned out to be 59%. Regarding `Cc1cccc(C)c1NC1=NC2(CCCCC2)N=C(N)N1`, the Potency was active: 631 nM. `O=c1c(O)cccc2cc(O)c(O)c(O)c12`: the cytoprotection (ATP increase) was -143%. Still for that read-out and setting: the result for `CSc1ncc(CN2CCN(C3CCCC3)C(CCO)C2)cn1` (stereo not drawn) reads 199% [at 10 µM]. On to `CC1(C)C(O)CC[C@]2(C)C1CC[C@@]1(C)C2C(=O)C=C2[C@@H]3C[C@@](C)(C(=O)O)CC[C@@]3(C)CCC21C` (stereo partly drawn), for which the cytoprotection (ATP increase) was -60.1%. As for `Cc1ccc(CN2C(=O)C[C@@H](NS(=O)(=O)c3ccc4ccccc4c3)C/C=C\C2c2ccc(C)cc2)cc1` (stereo partly drawn), the cytoprotection (ATP increase) was -45.9% [at 40.3 µM]. Take `CCCCC[C@H](O)/C=C/[C@@H]1[C@H](C/C=C\CCCC(=O)O)[C@@H](O)C[C@H]1O`: the cytoprotection (ATP increase) is -16.9%. As to `COc1ccc(-c2c(C)cc3oc(=O)cc(-c4ccccc4)c3c2C)cc1`, the cytoprotection (ATP increase) was -116%. As for `N#Cc1ccc(-c2nc3cc(C#N)c(C#N)cc3nc2-c2ccccc2)cc1C#N`, the Potency was active: 2820 nM.

Consider `COc1ccc2c(c1)OCc1c-2oc2cc(OC)ccc12`, for which the cytoprotection (ATP increase) is -70%. Still for that read-out and setting: the result for `CO/N=C(/C(=O)N[C@H]1C(=O)N2C(C(=O)O)=C(COC(C)=O)CSC12)c1csc(N)n1` (stereo partly drawn) reads -51%; that for `C=C1C[C@H](OC(=O)C(C)(O)CCl)C2C(=C)C(=O)O[C@@H]2C2C1C[C@H](O)[C@]2(O)CCl` (stereo partly drawn), -358%; that for `Cc1cc(C)c(C(=O)COC(=O)c2cc([N+](=O)[O-])ccc2NCCO)cc1C`, 346% [at 1.9 µM]. In the case of `NC(N)=Nc1nc(CSCC/C(N)=N\S(N)(=O)=O)cs1`, the cytoprotection (ATP increase) is -38.1%.

Turning to `COc1ccc(C2/C=C\CN(S(=O)(=O)c3ccc(C)cc3)CC(=O)N2Cc2cccc(F)c2)cc1` (stereo not drawn), the cytoprotection (ATP increase) is -36.9%. Turning to `COc1ccc2c(c1)O[C@@H](c1cccc(C(F)(F)F)c1)[C@H](OC(=O)Nc1cc(OC)c(OC)c(OC)c1)C2=O`, the cytoprotection (ATP increase) was determined as 54.1%. Turning to `CCCCC/C=C\C/C=C\CCCCCCCCCC(=O)NC(C)C(=O)O` (stereo not drawn), the cytoprotection (ATP increase) is 34.2%. Regarding `Cn1cc([N+](=O)[O-])c(C(=O)N(Cc2ccccc2)Cc2ccccc2)n1`, the Potency was active: 2510 nM. As to `Cc1ccccc1-c1ccc(C(=O)O)s1`, the cytoprotection (ATP increase) is -6.5% [at 96.6 µM]. For `Cc1cc(=O)oc2cc(O)ccc12`, the Potency is active: 5620 nM.

Consider `OC[C@@H]1[C@@H](c2ccc(F)cc2)C(c2cccc(Cl)c2)=NN1c1ccccc1`, for which the cytoprotection (ATP increase) was -142%. With `COc1ccc2c(c1)O[C@@H](c1ccc3c(c1)OCO3)[C@H](OC(=O)NCc1ccc3c(c1)OCO3)C2=O`, the cytoprotection (ATP increase) is -36.9%. Regarding `COc1ccc(CN(CCN(C)C)c2ccccn2)cc1`, the cytoprotection (ATP increase) is -48.9%. Take `COc1ccccc1[C@H]1C(c2cccc(C)c2)=NN(c2ccccc2)[C@@H]1CO`: the cytoprotection (ATP increase) is -339%. For the compound `CCC(Sc1nncn1C)C(=O)Nc1ccccc1OC` (stereo not drawn), the Potency is active: 14100 nM.
